Earlier results in US11571411B2, “Use of a bisamide derivative of malonic acid for treating allergic and other diseases in humans and animals” (PHARMENTERPRISES ALLERGY LLC, priority 2018, dated 2023).
At least one structure is not confirmed: it was looked up by name or label, or the drawing left a doubt.

Conditions: in vivo; cited from earlier work

## CN1CCN(C(=O)c2cc3cc(Cl)ccc3[nH]2)CC1 [JNJ-7777120]
  efficacy in an animal model of allergic rhinitis: effective
